Results reported in PubChem BioAssay AID2685 (National Center for Advancing Translational Sciences (NCATS), 2010).
Some of the results follow. Shown are side measurements of this screen, not its main read-out; they come without a call. Compounds called inactive in the main read-out are mostly missing here. Words in brackets tell the shape of the fitted curve; partial curves, single points and poor fits give uncertain potencies.

Test: qHTS Assay for Lipid Storage Modulators in Drosophila S3 Cells;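 for cell number change: cells counted by Cell Tracker Red CMTPX staining in the red channel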
Conditions: BODIPY lipid droplet fluorescence, 18-24 h; for cell number change: measured here: cell count max response, cells fed with added oleic acid
Procedure, shortened: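 Laser-scanning cytometry quantifies lipid droplet accumulation (500–530 nm total intensity; droplet/cell object ratio) in oleic acid-fed (400 uM added) Drosophila S3 cells treated with a concentration series. 20 uM Triacsin C defined 100% inhibition.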

[1] = measured here: cell number channel AC50, cells fed with added oleic acid
[2] = measured here: lipid fluorescence (Fed channel) AC50, cells fed with added oleic acid

Which cell number change does the source give for O=C(Cn1cnc([N+](=O)[O-])n1)N/N=C/c1ccc(O)cc1O here?
Its cell number change is -16.1%.

And the AC50 [1]?
Its AC50 is 6.51 µM [falling, single point].

What about the AC50 [2] of the same compound?
The AC50 was 4.61 µM [falling, single point].

With COc1ccc([N+](=O)[O-])cc1NCc1ccccc1C as the compound, how does the AC50 [2] read?
Its AC50 is 0.651 µM [falling, single point].

For N#CC1=C(N)Oc2n[nH]c(CSc3ccccc3)c2C12C(=O)Nc1ccccc12 (stereo unspecified), which cell number change is on record?
Its cell number change is -2.27%.

What about the AC50 [2] of the same compound?
Its AC50 is 0.146 µM [rising, full curve, poor fit].

Which cell number change does the source give for Cc1ccc(NC(=O)c2cccc(C(=O)Nc3ccc(C)cc3C(=O)O)c2)c(C(=O)O)c1 here?
The cell number change was 0.741%.

And the AC50 [2]?
The AC50 was 0.731 µM [falling, single point].

For CC1(C)NC(=O)N(CCOCCOc2c(Cl)cc(Cl)cc2Cl)C1=O, which cell number change is on record?
The cell number change was 97.9%.

What about the AC50 [1] of the same compound?
Its AC50 is 29.1 µM [rising, single point].

What about the AC50 [2] of the same compound?
The AC50 was 5.8 µM [rising, full curve, poor fit].

With COc1ccc(NC(=O)c2ccc(NCCN3C(=O)CCC3=O)c([N+](=O)[O-])c2)cc1 as the compound, how does the cell number change read?
The cell number change was -42.4%.

With CC(C)c1ccc(/C=N\NC(=O)c2ccc(Cn3cccn3)o2)cc1 as the compound, how does the cell number change read?
Its cell number change is -13.7%.

What about the AC50 [2] of the same compound?
Its AC50 is 20.6 µM [rising, single point].

What does the source list for COC(=O)C1=C(C(=O)c2ccc(C)cc2)C(c2ccccc2)n2nnnc2N1 (stereo unspecified)?
cell number change: 0.345%; AC50 [2]: 1.64 µM [rising, partial curve, poor fit]

What does the source list for CN(CC1COc2ccccc2O1)C(=O)CSc1ncnc2sccc12 (stereo unspecified)?
cell number change: -13.2%; AC50 [2]: 0.146 µM [falling, full curve, poor fit]

Which cell number change does the source give for Oc1ccccc1/C=C/c1noc(-c2ccccc2O)n1 here?
The cell number change was 14.6%.

What about the AC50 [1] of the same compound?
Its AC50 is 2.91 µM [falling, partial curve].

What about the AC50 [2] of the same compound?
Its AC50 is 2.31 µM [falling, partial curve].

With O=C(CCn1nnc2ccccc2c1=O)N[C@H](C(=O)O)c1ccccc1 as the compound, how does the cell number change read?
Its cell number change is 0.542%.

With Cc1c(C#N)c2ccccc2n1CC(=O)N1CCCC1 as the compound, how does the cell number change read?
Its cell number change is -17.6%.

And the AC50 [2]?
Its AC50 is 32.6 µM [rising, single point].

For CCOc1ccc(NC(=O)CCC(=O)c2ccc(-c3ccccc3)cc2)cc1, which cell number change is on record?
The cell number change was 48.7%.

What about the AC50 [1] of the same compound?
The AC50 was 16.4 µM [rising, single point].

And the AC50 [2]?
Its AC50 is 2.59 µM [rising, full curve].

Which cell number change does the source give for CCOC(=O)c1ccc(NC(=O)Oc2cc(C)c(Cl)cc2C(C)C)cc1 here?
The cell number change was -20.6%.

For COC(=O)c1ccc(CO/N=C/c2cccc([N+](=O)[O-])c2)cc1, which cell number change is on record?
Its cell number change is 7.91%.

And the AC50 [2]?
Its AC50 is 29.1 µM [falling, single point].

What does the source list for O=C(NCc1ccc2c(c1)OCO2)C1CCCN(S(=O)(=O)c2cccs2)C1 (stereo unspecified)?
cell number change: 26.6%; AC50 [1]: 0.13 µM [rising, full curve, poor fit]

With COc1ccc(C(=O)NCCCN(C)CCCNC(=O)c2ccc(OC)cc2)cc1 as the compound, how does the cell number change read?
Its cell number change is 15.5%.

And the AC50 [2]?
The AC50 was 29.1 µM [rising, single point].

What does the source list for Cc1cc(=O)[nH]c(SCC(=O)Nc2ccc(C(=O)O)cc2)n1?
cell number change: 14.5%; AC50 [1]: 0.517 µM [falling, single point]

For Cc1cc2c(N=NC(=O)CCc3ccccc3)c(O)[nH]c2cc1Br, which cell number change is on record?
The cell number change was 5.01%.

What about the AC50 [1] of the same compound?
The AC50 was 6.51 µM [rising, partial curve, poor fit].

What about the AC50 [2] of the same compound?
Its AC50 is 1.03 µM [rising, full curve].

Which cell number change does the source give for CCc1ccc(NC(=O)CSc2nc3ccccc3c(=O)n2CCCN2CCC(C)CC2)cc1 here?
Its cell number change is -25.8%.

What about the AC50 [2] of the same compound?
The AC50 was 18.4 µM [falling, single point].

What does the source list for CCN1CCN(CC(O)COc2ccc(Cl)cc2)CC1 (stereo unspecified)?
cell number change: -45.3%; AC50 [1]: 29.1 µM [falling, single point]; AC50 [2]: 29.1 µM [falling, single point]

With Cc1ccccc1C(=O)NC(=S)NCCc1ccccc1 as the compound, how does the cell number change read?
The cell number change was 36.5%.

What about the AC50 [1] of the same compound?
Its AC50 is 7.31 µM [rising, partial curve].

With COc1ccccc1/C=C1/C(=O)N(c2ccccc2)N=C1C as the compound, how does the cell number change read?
Its cell number change is 20.8%.

Which AC50 [1] does the source give for O=C(NC(NC(=O)c1ccccc1)c1ccccc1)c1ccccc1 here?
Its AC50 is 6.51 µM [falling, single point].

With O=C1NC[C@H](CC2CCCCC2)N(CCc2cccc(F)c2)C1=O as the compound, how does the cell number change read?
Its cell number change is -8.63%.

What about the AC50 [2] of the same compound?
Its AC50 is 0.00411 µM [rising, full curve, poor fit].

With C=CCn1c(SCC(=O)/C(C#N)=C(\C)N)nnc1C1CCCCC1 as the compound, how does the cell number change read?
The cell number change was -24.1%.

And the AC50 [2]?
Its AC50 is 0.731 µM [falling, single point].

For Cn1c(C(=O)NC2CCCCC2)cc2c(=O)n3ccccc3nc21, which cell number change is on record?
Its cell number change is 23.4%.

And the AC50 [2]?
Its AC50 is 29.1 µM [falling, single point].

With Cc1cc2oc(C(=O)N(Cc3ccccc3)C3CCS(=O)(=O)C3)cc(=O)c2cc1Cl (stereo unspecified) as the compound, how does the cell number change read?
Its cell number change is 119%.

What about the AC50 [1] of the same compound?
The AC50 was 2.31 µM [rising, full curve].

What about the AC50 [2] of the same compound?
Its AC50 is 3.66 µM [rising, partial curve].

For Cc1cc(C)n(-c2nnc(N3CCN(c4ccc(F)cc4)CC3)nn2)n1, which cell number change is on record?
Its cell number change is 35.5%.

With Cc1cc(C)c2c(CN3CCN(C/C=C/c4ccccc4)CC3)cc(=O)oc2c1 as the compound, how does the cell number change read?
Its cell number change is -25.7%.

What about the AC50 [2] of the same compound?
Its AC50 is 16.4 µM [falling, single point].

Which cell number change does the source give for O=C(CCNS(=O)(=O)c1cccc2nsnc12)NCCc1ccccc1 here?
The cell number change was 3.18%.

What about the AC50 [2] of the same compound?
The AC50 was 14.6 µM [rising, single point].

With CC(=O)NS(=O)(=O)c1ccc(NC(=O)c2ccc(S(=O)(=O)N3CCCC3)cc2)cc1 as the compound, how does the cell number change read?
The cell number change was -22.1%.

What about the AC50 [2] of the same compound?
Its AC50 is 18.4 µM [falling, single point].

Which results are given for CC(=O)N1CCc2ccc(S(=O)(=O)Nc3ccccc3Cl)cc21?
cell number change: -24.6%; AC50 [1]: 0.0058 µM [falling, full curve, poor fit]; AC50 [2]: 0.0058 µM [falling, full curve]

Which cell number change does the source give for Cc1ccc2nc(C)c(Cl)c(=O)n2c1 here?
Its cell number change is 8.5%.

What about the AC50 [2] of the same compound?
The AC50 was 6.51 µM [rising, single point].

Which cell number change does the source give for CC(=O)Nc1ccc(-n2nnnc2SCC(=O)NC2CCCC2)cc1 here?
The cell number change was 5.83%.

And the AC50 [2]?
The AC50 was 16.4 µM [falling, single point].

What does the source list for O=C(c1cccs1)n1nc(-c2ccccc2)nc1NCc1ccc(F)cc1?
AC50 [1]: 0.461 µM [rising, partial curve, poor fit]; AC50 [2]: 2.91 µM [rising, partial curve, poor fit]

For CCC(C)(C)NC(=O)Nc1cc(Cl)ccc1OC, which cell number change is on record?
Its cell number change is 38.3%.

What about the AC50 [1] of the same compound?
The AC50 was 10.3 µM [rising, single point].

What about the AC50 [2] of the same compound?
Its AC50 is 0.58 µM [falling, single point].
